Assay results published in the supplement of paper PMC12425257.
± gives the standard deviation of the averaged measurements. The list shows a part of the results.

System: Madurella mycetomatis MM55
Test: metabolic activity (growth) relative to DMSO growth control; higher = more fungal growth

Row | SMILES | metabolic activity (1 µM) [%] | metabolic activity (2 µM) [%] | metabolic activity (10 µM) [%]
1 | Cc1ccc(C(=O)Nc2ccc(Nc3ccnc4cc(-c5ccccn5)ccc34)cc2O)cc1 | 81.4 ± 17 | 71 ± 10 | 84.54 ± 0.29
2 | COc1ncc(-c2cc(-c3ncc(CN4C[C@@H](C)O[C@@H](C)C4)o3)c3cn[nH]c3c2)cc1NS(C)(=O)=O | 95.6 ± 28 | 82.2 ± 2.4 | 73.5 ± 47
3 | CN(C)CC(=O)N1CCC(C(=O)Nc2ncc(SCc3ncc(C(C)(C)C)o3)s2)CC1 | 82.6 ± 11 | 114 ± 16 | 104 ± 5.1
4 | NS(=O)(=O)c1ccc(N/N=C2\C(=O)Nc3ccc(C(=O)NCc4ccncc4)cc32)cc1 | 98 ± 17 | 96.7 ± 21 | 95.7 ± 19
5 | NC(=O)c1c(Oc2cccc(CNS(N)(=O)=O)c2)cc(F)c(F)c1Nc1ccc(I)cc1F | 102 ± 9.4 | 118 ± 3.2 | 118 ± 13
6 | Cn1c(=O)c(F)c(Nc2ccc(I)cc2F)c2c(=O)n(OC[C@H](O)CO)cnc21 | 98.5 ± 45 | 108 ± 12 | 114 ± 23
7 | C[C@@H]1CCN(C(=O)CO)C[C@@H]1N(C)c1ncnc2[nH]ccc12 | 118 ± 15 | 123 ± 31 | 97.4 ± 25
8 | COc1cccc(-c2c[nH]c3c(N/N=C/c4ccncc4)ncnc23)c1 | 99.9 ± 17 | 102 ± 2.2 | 81.9 ± 15
9 | CC(C)NC(=O)N1CC[C@H](NC2=Nc3cc(F)ccc3N(CC(F)F)c3ccc(Cl)cc32)C1 | 79.7 ± 41 | 65.4 ± 16 | 137 ± 19
10 | Fc1cccc(COc2ccc(Nc3ncncc3C#Cc3ccccc3)cc2Cl)c1 | 103 ± 1.1 | 91.9 ± 18 | 71.4 ± 37
11 | O=C(Nc1ccccc1)Nc1cccc(Oc2ccc3nccn3n2)c1 | 87.3 ± 35 | 63.4 ± 1.9 | 97.1 ± 13
12 | COc1cc(N2CCN(C)CC2)ccc1Nc1ncc2c(n1)N(C)c1ccccc1C(=O)N2CC(F)(F)F | 99.5 ± 6.2 | 95.9 ± 1.7 | 82.6 ± 16
13 | CC1=C(C(=O)Nc2ccc3[nH]ncc3c2)C(c2ccc3ccccc3c2)CC(=O)N1 (stereo not given) | 95.8 ± 2.8 | 105 ± 36 | 107.1 ± 0.2
14 | Cn1ncc2cc(-c3cnc(N)c(Cl)c3N3CCC4(CCNC4=O)CC3)ccc21 | 100 ± 20 | 123 ± 10 | 94.1 ± 20
15 | CC(C)S(=O)(=O)c1ccc2nccc(Nc3ccc4scnc4c3)c2c1 | 107 ± 1.1 | 67.6 ± 8.2 | 77.8 ± 9.6
16 | C[C@@H](Oc1cc(-n2cnc3ccc(CN4CCN(C)CC4)cc32)sc1C(N)=O)c1ccccc1C(F)(F)F | 86.6 ± 6.2 | 64.3 ± 4 | 105 ± 3.7
17 | Cc1cc(-c2n[nH]c3cc4c(nc23)CN([C@H](C)c2ccccc2)C(=O)N4)ccn1 | 94.6 ± 29 | 94.4 ± 20 | 96.9 ± 27
18 | C[C@H]([NH2+]c1nc(-c2c[nH]c3ncc(Cl)cc23)cn(C)c1=O)C(=O)NCC(F)(F)F.O=C([O-])C(F)(F)F | 96.8 ± 8.5 | 63.2 ± 42 | 134.3 ± 1.3
19 | COc1cccc(-c2cc3ncnc(SCC(=O)O)c3s2)c1 | 106 ± 16 | 94.7 ± 23 | 95.9 ± 18
20 | C#Cc1cccc(Nc2ncnc3cc(OC)c(OC4CCN(C)CC4)cc23)c1 | 85.2 ± 1.1 | 98 ± 29 | 85.3 ± 3.8
21 | Nc1nccc(-c2c(-c3ccc(F)cc3)ncn2CCCN2CCOCC2)n1 | 90.5 ± 19 | 91.1 ± 5.8 | 104 ± 3.3
22 | Cc1c(Cn2c(C)c(C)n3c(=O)cc(N4CCOCC4)nc23)cccc1C(F)(F)F | 84.7 ± 10 | 88.8 ± 10 | 117 ± 18
23 | Cl.O=S1CCN(Cc2ccc(-c3ccc4ncnc(Nc5ccc(OCc6ccccc6)c(F)c5)c4c3)o2)CC1 | 93.8 ± 20 | 118 ± 20 | 91.6 ± 20
24 | FC1=CC(C3=NC2=CC(OC)=C(OC)C=C2C(N[C@H]4[C@H]([C@](C)(O)C)CNC4)=N3)=C(O)C=C1.Cl.Cl | 120 ± 19 | 93.2 ± 4.9 | 101 ± 17
25 | O=C(O)C(F)(F)F.O=C(O)C(F)(F)F.c1cc(CNc2nc3ccc(-c4ccncc4)cc3s2)cc(CN2CCOCC2)c1 | 109 ± 36 | 109 ± 31 | 142 ± 64
26 | CC(C)(C)OC(=O)NCCCNS(=O)(=O)c1ccc(Nc2ncc3c(n2)Nc2ccsc2C(=O)N3)cc1 | 93.8 ± 24 | 79.1 ± 0.3 | 106 ± 24
27 | COc1cc(Nc2nccc(-c3cnn4nc(OC)ccc34)n2)cc(C(F)(F)F)c1 | 119 ± 15 | 114 ± 36 | 109 ± 1.1
28 | Nc1ncnc2[nH]c(-c3ccccc3)nc12 | 89.2 ± 20 | 96.9 ± 36 | 107 ± 7.2
29 | COc1ccc(CSc2nnc(-c3ccc4ncsc4c3)o2)cc1C(F)(F)F | 96 ± 24 | 76.43 ± 0.69 | 98 ± 24
30 | CC(=O)c1c(C)c2cnc(Nc3ccc(N4CCNCC4)cn3)nc2n(C2CCCC2)c1=O | 103 ± 24 | 93.4 ± 24 | 111 ± 15

Molecules above with a tert-butyl group (two):
Row | SMILES | metabolic activity (1 µM) [%] | metabolic activity (2 µM) [%] | metabolic activity (10 µM) [%]
3 | CN(C)CC(=O)N1CCC(C(=O)Nc2ncc(SCc3ncc(C(C)(C)C)o3)s2)CC1 | 82.6 ± 11 | 114 ± 16 | 104 ± 5.1
26 | CC(C)(C)OC(=O)NCCCNS(=O)(=O)c1ccc(Nc2ncc3c(n2)Nc2ccsc2C(=O)N3)cc1 | 93.8 ± 24 | 79.1 ± 0.3 | 106 ± 24
